Taken from: PubChem BioAssay AID1259308 (NCATS, 2017)

Test: 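Knock-downs that increase output of a recombinant reporter protein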 (primary screen)
Cell system: human HEK293 embryonic kidney cells stably expressing firefly luciferase (HEK-CMV-Luc2-Hygro)
Reagents: single siRNA against human genes, 0.8 pmol siRNA per well
Timing: 72 h
Detection: 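Reporter luminescence and viable-cell signal on separate replicate plates, given as percent of non-targeting control and median/MAD z-scores, plus per-cell luciferase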
Reading the numbers: total luciferase, z-score and total luciferase, % of control: higher = more reporter protein produced; luciferase per cell, z-score: higher = more reporter output per viable cell; viable cells, % of control: higher = more viable cells
Rule for the call: 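Active when the median/MAD z-score for overall luciferase is greater than 3; a gene was taken forward for validation with new siRNAs if at least two of its three siRNAs passed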
Meaning of the calls: active = raised luciferase; inactive = no rise
Shown is one part, drawn at random, of about 59,000 reagents tested. Of all reagents, about 1,510 (2.6%) got an active call. 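Calls use total luciferase alone and ignore viability, so some active siRNAs may act by altering cell number.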 The numbers tell different reagents against one gene apart.

| Gene | siRNA no. | total luciferase, z-score | total luciferase, % of control | luciferase per cell, z-score | viable cells, % of control | Outcome |
| --- | --- | --- | --- | --- | --- | --- |
| RAG1 (GeneID 5896) | 1 | -0.905 | 63.9 | -1.02 | 93.4 | inactive |
| RAG1 (GeneID 5896) | 2 | 1.12 | 104 | 1.25 | 83.7 | inactive |
| RAG1 (GeneID 5896) | 3 | -0.663 | 68.7 | -0.893 | 97.1 | inactive |
| PARP9 (GeneID 83666) | 1 | 0.609 | 94 | 0.976 | 81.2 | inactive |
| PARP9 (GeneID 83666) | 2 | -0.639 | 69.2 | -0.86 | 96.9 | inactive |
| PARP9 (GeneID 83666) | 3 | -0.317 | 75.6 | -0.428 | 94.5 | inactive |
| HCFC1 (GeneID 3054) | 1 | -0.638 | 69.2 | 0.991 | 59.6 | inactive |
| HCFC1 (GeneID 3054) | 2 | -0.253 | 76.9 | 0.124 | 83.1 | inactive |
| HCFC1 (GeneID 3054) | 3 | 0.824 | 98.3 | 1.81 | 68.2 | inactive |
| GPR6 (GeneID 2830) | 1 | 0.595 | 93.7 | 0.238 | 98.4 | inactive |
| GPR6 (GeneID 2830) | 2 | -2.6 | 30.1 | -1.93 | 56 | inactive |
| GPR6 (GeneID 2830) | 3 | 0.5 | 91.8 | -0.0292 | 103 | inactive |
| PNCK (GeneID 139728) | 1 | 2.11 | 124 | 1.71 | 88.2 | inactive |
| PNCK (GeneID 139728) | 2 | 0.432 | 90.5 | 0.0451 | 99.9 | inactive |
| PNCK (GeneID 139728) | 3 | 0.584 | 93.5 | 0.711 | 86.6 | inactive |
| FGF6 (GeneID 2251) | 1 | 1.16 | 105 | 0.656 | 98.7 | inactive |
| FGF6 (GeneID 2251) | 2 | 0.548 | 92.8 | 0.506 | 90.7 | inactive |
| FGF6 (GeneID 2251) | 3 | -0.2 | 77.9 | -0.229 | 92.5 | inactive |
| QARS1 (GeneID 5859) | 1 | 1.89 | 120 | 1.19 | 97.7 | inactive |
| QARS1 (GeneID 5859) | 2 | -0.371 | 74.5 | -0.623 | 98.1 | inactive |
| QARS1 (GeneID 5859) | 3 | 1.8 | 118 | 0.781 | 107 | inactive |
| PALS2 (GeneID 51678) | 1 | -1.11 | 59.9 | -0.0437 | 67.7 | inactive |
| PALS2 (GeneID 51678) | 2 | 1.32 | 108 | 1.75 | 76.3 | inactive |
| PALS2 (GeneID 51678) | 3 | -1.32 | 55.7 | -0.537 | 71.6 | inactive |
| HAVCR2 (GeneID 84868) | 1 | 1.55 | 113 | 2.22 | 70.3 | inactive |
| HAVCR2 (GeneID 84868) | 2 | -0.0857 | 80.2 | -0.722 | 108 | inactive |
| HAVCR2 (GeneID 84868) | 3 | -1.37 | 54.7 | -1.89 | 101 | inactive |
| ARMC6 (GeneID 93436) | 1 | 1.3 | 108 | 0.574 | 104 | inactive |
| ARMC6 (GeneID 93436) | 2 | -0.177 | 78.4 | -0.208 | 92.5 | inactive |
| ARMC6 (GeneID 93436) | 3 | 2.18 | 125 | 1.85 | 86.1 | inactive |
| SLC30A1 (GeneID 7779) | 1 | 4.6 | 173 | 2.64 | 96.8 | active |
| SLC30A1 (GeneID 7779) | 2 | -1.51 | 51.8 | -1.78 | 92.4 | inactive |
| SLC30A1 (GeneID 7779) | 3 | -2.04 | 41.3 | -2.55 | 90.3 | inactive |
| GPT (GeneID 2875) | 1 | 0.182 | 85.5 | 0.0273 | 94.9 | inactive |
| GPT (GeneID 2875) | 2 | 1.59 | 113 | 1.1 | 95 | inactive |
| GPT (GeneID 2875) | 3 | -0.0288 | 81.3 | -0.579 | 106 | inactive |
| NSL1 (GeneID 25936) | 1 | 0.231 | 86.5 | 0.676 | 80.9 | inactive |
| NSL1 (GeneID 25936) | 2 | 0.903 | 99.9 | 0.784 | 90.8 | inactive |
| NSL1 (GeneID 25936) | 3 | 0.919 | 100 | 0.222 | 106 | inactive |
| FBXL9P (GeneID 26231) | 1 | -0.226 | 77.4 | 0.0792 | 84.7 | inactive |
| FBXL9P (GeneID 26231) | 2 | 1.74 | 117 | 1.79 | 81.4 | inactive |
| FBXL9P (GeneID 26231) | 3 | 0.206 | 86 | -0.532 | 111 | inactive |
| ACP1 (GeneID 52) | 1 | -0.61 | 69.7 | -1.01 | 102 | inactive |
| ACP1 (GeneID 52) | 2 | 0.665 | 95.1 | 0.0471 | 105 | inactive |
| ACP1 (GeneID 52) | 3 | 0.0358 | 82.6 | -0.068 | 94 | inactive |
| NDUFS8 (GeneID 4728) | 1 | -0.367 | 74.6 | -0.634 | 98.5 | inactive |
| NDUFS8 (GeneID 4728) | 2 | -0.749 | 67 | -0.633 | 88.4 | inactive |
| NDUFS8 (GeneID 4728) | 3 | -0.981 | 62.4 | 0.38 | 63.1 | inactive |
| RECQL (GeneID 5965) | 1 | -0.0337 | 81.2 | 0.615 | 77.2 | inactive |
| RECQL (GeneID 5965) | 2 | 1.1 | 104 | 0.639 | 97.9 | inactive |
| RECQL (GeneID 5965) | 3 | 0.383 | 89.5 | -0.291 | 108 | inactive |
| LINC01118 (GeneID 388948) | 1 | -2.49 | 32.4 | -3.39 | 88.4 | inactive |
| LINC01118 (GeneID 388948) | 2 | 3.46 | 151 | 2.93 | 77.9 | active |
| LINC01118 (GeneID 388948) | 3 | -2.65 | 29.2 | -2.33 | 60.3 | inactive |
| CAMK2G (GeneID 818) | 1 | -0.891 | 64.2 | -1.13 | 96.5 | inactive |
| CAMK2G (GeneID 818) | 2 | -1.96 | 42.8 | -0.876 | 60.3 | inactive |
| CAMK2G (GeneID 818) | 3 | -0.545 | 71 | -0.662 | 94.5 | inactive |
